Experimental data published in publication PMC11811201.
Changes are numbered by the printed parent chain. These are yes or no findings as the source states them, for the method shown. In cells and extracts the contact can be indirect. Some results given as binding are weak or reduced against the parent protein; the word gives no strength. Sequences can lack the tags named with a protein.

Protein sequences, listed by entry. Tags and fused reporters are not part of them.
UniProt P70032: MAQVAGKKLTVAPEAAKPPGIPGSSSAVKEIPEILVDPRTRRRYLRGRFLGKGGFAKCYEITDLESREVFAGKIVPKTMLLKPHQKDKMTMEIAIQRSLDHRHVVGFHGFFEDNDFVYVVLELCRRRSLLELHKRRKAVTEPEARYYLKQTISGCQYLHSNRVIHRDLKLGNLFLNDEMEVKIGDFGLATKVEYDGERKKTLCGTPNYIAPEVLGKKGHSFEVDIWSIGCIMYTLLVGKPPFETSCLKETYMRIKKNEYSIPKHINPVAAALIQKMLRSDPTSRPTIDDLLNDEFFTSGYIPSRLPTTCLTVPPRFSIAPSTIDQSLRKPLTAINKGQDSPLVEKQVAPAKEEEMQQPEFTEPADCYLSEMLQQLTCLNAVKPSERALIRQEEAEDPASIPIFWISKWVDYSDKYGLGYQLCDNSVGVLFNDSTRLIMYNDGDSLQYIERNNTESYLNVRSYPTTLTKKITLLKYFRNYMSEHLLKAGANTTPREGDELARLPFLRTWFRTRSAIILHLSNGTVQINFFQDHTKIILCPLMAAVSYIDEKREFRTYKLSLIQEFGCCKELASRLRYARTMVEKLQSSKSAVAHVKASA

B1: Flag-tagged wildtype Xenopus cyclin B1 (translated from mRNA in CSF extract) (protein, UniProt Q6IR86 1-393)
chain: MALIMTRSMRLNAENVAQGMAGKKAAVSKPVPKPRNALGDIGNQIGKAKVPLKKTTKALRKPTVQKSEKLAVLEENVPKEAQKAAPDSPSPMETSVCVIEEMQPEPAFSSALIPVTDVDAEDSDNPMLCSDYVKDIYCYLRNLEAEQAIGPHYLDGQEINGNMRAILVDWLVQVQLRFKLLQETMSMTVSILDRFLQENPVPKKLLQLAGVSAMFIACKYEEIYCPSIGDFVFVTDNTYTKSQIRNMEMQILRVLNFDIGRPLPLHFLRRASKIGEVDSVHHTLAKYLIELVMTDYDMVHIPPSQLAAAAFCLAMKILNSGEWTPTLEHYMAYKESSLTPVMQHIAKNIVKVNGGHTKFMSVKNKYTSSRQMKISCLPHLKSELVENLAKAAS

Legend:
[1] = biological target: T1, Flag-tagged full-length stable XErp1 (Flag-XErp1^s WT) (Xenopus laevis) (UniProt Q8AXF4); assay: condition: only with pocket mutant cyclin B3 in the extract in place of cyclin B3^WT; co-IP; as a3, but the extract held IVT Myc-cyclin B3^PM (pocket mutant) in place of Myc-cyclin B3^WT
T1 sequence: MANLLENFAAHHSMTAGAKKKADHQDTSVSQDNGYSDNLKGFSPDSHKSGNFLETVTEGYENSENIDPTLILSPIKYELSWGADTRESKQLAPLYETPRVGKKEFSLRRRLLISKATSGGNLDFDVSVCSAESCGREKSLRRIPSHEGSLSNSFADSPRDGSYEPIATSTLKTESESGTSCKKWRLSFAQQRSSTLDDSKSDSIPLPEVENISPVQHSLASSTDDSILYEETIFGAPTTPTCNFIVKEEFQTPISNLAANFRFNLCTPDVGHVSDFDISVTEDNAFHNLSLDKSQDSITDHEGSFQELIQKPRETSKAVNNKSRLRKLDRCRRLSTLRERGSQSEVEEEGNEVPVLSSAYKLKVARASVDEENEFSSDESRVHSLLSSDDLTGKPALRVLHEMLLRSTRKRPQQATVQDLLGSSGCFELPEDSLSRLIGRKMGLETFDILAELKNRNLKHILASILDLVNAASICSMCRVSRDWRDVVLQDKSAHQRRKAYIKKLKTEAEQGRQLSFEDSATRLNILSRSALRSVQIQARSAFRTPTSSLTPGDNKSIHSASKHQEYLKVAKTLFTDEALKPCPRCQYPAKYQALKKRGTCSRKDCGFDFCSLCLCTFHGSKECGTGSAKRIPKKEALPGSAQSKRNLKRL

[2] = biological target: T1, Flag-tagged full-length stable XErp1 (Flag-XErp1^s WT) (Xenopus laevis); assay: co-IP; α-Flag IP of IVT Flag-XErp1^s variants from CSF extract with IVT Myc-cyclin B3^WT, Myc-XErp1^CT and MG262; extract diluted 1:4 with IP buffer (20 mM Tris-HCl pH 7.5, 100 mM NaCl, 10 mM EDTA); 30 min at RT; blot for endogenous Plk1
[3] = biological target: T2, Flag-tagged full-length stable XErp1 T170A (Flag-XErp1^s T170A) (Xenopus laevis) (UniProt Q8AXF4); assay: as above
T2 sequence: T1 sequence with T170A

[4] = biological target: T3, Flag-tagged full-length stable XErp1 T97A (Flag-XErp1^s T97A) (Xenopus laevis) (UniProt Q8AXF4); assay: as above
T3 sequence: T1 sequence with T97A

[5] = biological target: T4, XErp1 pT97 peptide (aa 90-104, phosphorylated at T97) (Xenopus laevis); assay: pull-down; XErp1 aa 90–104 peptides coupled to SulfoLink beads, incubated 30 min at 4 °C with CSF extract (MG262, Myc-XErp1^CT IVT) that expressed Flag-cyclins from mRNA, diluted 1:5 in IPB (20 mM Tris-HCl pH 7.5, 100 mM NaCl, 10 mM EDTA); Western blot of beads; only the target purified
T4 sequence (peptide, phosphothreonine at T97): CQLAPLYETPRVGKKE

Molecule | binding [1] | binding [2] | binding [3] | binding [4] | binding [5]
Polo-like kinase 1 (endogenous, Xenopus CSF extract) (from UniProt P70032 1-598) (enzyme) | no binding | binds | no binding | no binding | –
B1 | – | – | – | – | binds weakly
